One compound from patent US10300143B2, “Compositions for treating cancer and methods for making the same” (THE BRIGHAM AND WOMEN'S HOSPITAL, INC., priority 2012, dated 2019) can be followed below.

For this series, the system named is 4T1 breast cancer cells. As to the kind of experiment: PI103-SNPs internalization assay. It counts as cell-based, murine.

`Oc1cccc(-c2nc(N3CCOCC3)c3oc4ncccc4c3n2)c1` [PI103]: the “intracellular concentration of PI103” value (4 hours) is listed as “higher in the cells treated with the free drug than in SNP-PI103” and the “intracellular concentration of PI103” value (18 hours) is “only traces of the drug were detected”.
